# Results: the supplement of paper PMC8728848
# This is one part of the list.
# B1: Aap brpt (Staphylococcus epidermidis) (protein)
# chain: VDGDPITSTEEIPFDKKREFDPNLAPGTEKVVQKGEPGTKTITTPTTKNPLTGEKVGEGEPTEKITKQPVDEIVHYGGEEIKTGHKDEFDPNAPKGSQTTQPGKPGVKNPDTGEVVTPPVDDVTKYGPVDGDPITSTEEIPFDKKREFDPNLAPGTEKVVQKGEPGTKTITTPTTKNPLTGEKVGEGEPTEKITKQPVDEIVHYGGEEIKPGHKDEFDPNAPKGSQEDVPGKPGVKNPDTGEVVTPPVDDVTKYGPVDGDSITSTEEIPFDKKREFDPNLAPGTEKVVQKGEPGTKTITTPTTKNPLTGEKVGEGEPTEKITKQPVDEIVHYGGEQIPQGHKDEFDPNAPVDSKTEVPGKPGVKNPDTGEVVTPPVDDVTKYGPVDGDSITSTEEIPFDKKREFDPNLAPGTEKVVQKGEPGTKTITTPTTKNPLTGEKVGEGKSTEKVTKQPVDEIVEYGPTK
# Experiments:
# Experiment in all cases: glycan array binding signal (z-score within array); higher = stronger binding
# Conditions in all cases: glycan notation: IUPAC condensed, linker removed
# [1] = biological target: Gal(b1-4)GlcNAc(b1-3)Gal(b1-4)Glc
# In short: (§1)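 Arrays were curated from the Consortium for Functional Glycomics database, 3228 in total, and kept only where the protein sequence was available. Binding is expressed as a within-array Z-score. This score was averaged across arrays of the same protein sequence at different concentrations or buffers and across linkers, and negative values can be read as non-binding.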
# [2] = biological target: Gal(b1-4)GlcNAc(b1-3)Gal(b1-4)GlcNAc
# In short: as §1
# [3] = biological target: Gal(b1-4)GlcNAc(b1-3)Gal(b1-4)GlcNAc(b1-2)Man(a1-3)[Gal(b1-4)GlcNAc(b1-3)Gal(b1-4)GlcNAc(b1-2)Man(a1-6)]Man(b1-4)GlcNAc(b1-4)GlcNAc
# In short: as §1
# [4] = biological target: Gal(b1-4)GlcNAc(b1-3)Gal(b1-4)GlcNAc(b1-2)Man(a1-3)[Gal(b1-4)GlcNAc(b1-3)Gal(b1-4)GlcNAc(b1-2)Man(a1-6)]Man(b1-4)GlcNAc(b1-4)[Fuc(a1-6)]GlcNAc
# In short: as §1
# [5] = biological target: Gal(b1-4)GlcNAc(b1-3)Gal(b1-4)GlcNAc(b1-2)[Gal(b1-4)GlcNAc(b1-3)Gal(b1-4)GlcNAc(b1-6)]Man(a1-6)[Gal(b1-4)GlcNAc(b1-3)Gal(b1-4)GlcNAc(b1-2)Man(a1-3)]Man(b1-4)GlcNAc(b1-4)GlcNAc
# In short: as §1
# [6] = biological target: Gal(b1-4)GlcNAc(b1-3)Gal(b1-4)GlcNAc(b1-2)[Gal(b1-4)GlcNAc(b1-3)Gal(b1-4)GlcNAc(b1-6)]Man(a1-6)[Gal(b1-4)GlcNAc(b1-3)Gal(b1-4)GlcNAc(b1-2)Man(a1-3)]Man(b1-4)GlcNAc(b1-4)[Fuc(a1-6)]GlcNAc
# In short: as §1
# [7] = biological target: Gal(b1-4)GlcNAc(b1-3)Gal(b1-4)GlcNAc(b1-3)Gal(b1-4)GlcNAc
# In short: as §1
# [8] = biological target: Gal(b1-4)GlcNAc(b1-3)Gal(b1-4)GlcNAc(b1-3)Gal(b1-4)GlcNAc(b1-2)Man(a1-3)[Gal(b1-4)GlcNAc(b1-3)Gal(b1-4)GlcNAc(b1-3)Gal(b1-4)GlcNAc(b1-2)Man(a1-6)]Man(b1-4)GlcNAc(b1-4)GlcNAc
# In short: as §1
# [9] = biological target: Gal(b1-4)GlcNAc(b1-3)Gal(b1-4)GlcNAc(b1-3)Gal(b1-4)GlcNAc(b1-2)Man(a1-3)[Gal(b1-4)GlcNAc(b1-3)Gal(b1-4)GlcNAc(b1-3)Gal(b1-4)GlcNAc(b1-2)Man(a1-6)]Man(b1-4)GlcNAc(b1-4)[Fuc(a1-6)]GlcNAc
# In short: as §1
# [10] = biological target: Gal(b1-4)GlcNAc(b1-3)Gal(b1-4)GlcNAc(b1-3)Gal(b1-4)GlcNAc(b1-2)[Gal(b1-4)GlcNAc(b1-3)Gal(b1-4)GlcNAc(b1-3)Gal(b1-4)GlcNAc(b1-6)]Man(a1-6)[Gal(b1-4)GlcNAc(b1-3)Gal(b1-4)GlcNAc(b1-3)Gal(b1-4)GlcNAc(b1-2)Man(a1-3)]Man(b1-4)GlcNAc(b1-4)[Fuc(a1-6)]GlcNAc
# In short: as §1
# [11] = biological target: Gal(b1-4)GlcNAc(b1-3)Gal(b1-4)GlcNAc(b1-3)Gal(b1-4)GlcNAc(b1-3)Gal(b1-4)GlcNAc(b1-2)Man(a1-3)[Gal(b1-4)GlcNAc(b1-3)Gal(b1-4)GlcNAc(b1-3)Gal(b1-4)GlcNAc(b1-3)Gal(b1-4)GlcNAc(b1-2)Man(a1-6)]Man(b1-4)GlcNAc(b1-4)GlcNAc
# In short: as §1
# [12] = biological target: Gal(b1-4)GlcNAc(b1-3)Gal(b1-4)GlcNAc(b1-3)Gal(b1-4)GlcNAc(b1-3)Gal(b1-4)GlcNAc(b1-2)Man(a1-3)[Gal(b1-4)GlcNAc(b1-3)Gal(b1-4)GlcNAc(b1-3)Gal(b1-4)GlcNAc(b1-3)Gal(b1-4)GlcNAc(b1-2)Man(a1-6)]Man(b1-4)GlcNAc(b1-4)[Fuc(a1-6)]GlcNAc
# In short: as §1
# [13] = biological target: Gal(b1-4)GlcNAc(b1-3)Gal(b1-4)GlcNAc(b1-3)Gal(b1-4)GlcNAc(b1-3)Gal(b1-4)GlcNAc(b1-2)[Gal(b1-4)GlcNAc(b1-3)Gal(b1-4)GlcNAc(b1-3)Gal(b1-4)GlcNAc(b1-3)Gal(b1-4)GlcNAc(b1-6)]Man(a1-6)[Gal(b1-4)GlcNAc(b1-3)Gal(b1-4)GlcNAc(b1-3)Gal(b1-4)GlcNAc(b1-3)Gal(b1-4)GlcNAc(b1-2)Man(a1-3)]Man(b1-4)GlcNAc(b1-4)[Fuc(a1-6)]GlcNAc
# In short: as §1
# [14] = biological target: Gal(b1-4)GlcNAc(b1-3)Gal(b1-4)GlcNAc(b1-3)Gal(b1-4)GlcNAc(b1-3)Gal(b1-4)GlcNAc(b1-3)Gal(b1-4)GlcNAc(b1-2)Man(a1-3)[Gal(b1-4)GlcNAc(b1-3)Gal(b1-4)GlcNAc(b1-3)Gal(b1-4)GlcNAc(b1-3)Gal(b1-4)GlcNAc(b1-3)Gal(b1-4)GlcNAc(b1-2)Man(a1-6)]Man(b1-4)GlcNAc(b1-4)GlcNAc
# In short: as §1
# [15] = biological target: Gal(b1-4)GlcNAc(b1-3)Gal(b1-4)GlcNAc(b1-3)Gal(b1-4)GlcNAc(b1-3)Gal(b1-4)GlcNAc(b1-3)Gal(b1-4)GlcNAc(b1-2)Man(a1-3)[Gal(b1-4)GlcNAc(b1-3)Gal(b1-4)GlcNAc(b1-3)Gal(b1-4)GlcNAc(b1-3)Gal(b1-4)GlcNAc(b1-3)Gal(b1-4)GlcNAc(b1-2)Man(a1-6)]Man(b1-4)GlcNAc(b1-4)[Fuc(a1-6)]GlcNAc
# In short: as §1
# [16] = biological target: Gal(b1-4)GlcNAc(b1-3)Gal(b1-4)GlcNAc(b1-3)Gal(b1-4)GlcNAc(b1-3)Gal(b1-4)GlcNAc(b1-3)Gal(b1-4)GlcNAc(b1-2)[Gal(b1-4)GlcNAc(b1-3)Gal(b1-4)GlcNAc(b1-3)Gal(b1-4)GlcNAc(b1-3)Gal(b1-4)GlcNAc(b1-3)Gal(b1-4)GlcNAc(b1-6)]Man(a1-6)[Gal(b1-4)GlcNAc(b1-3)Gal(b1-4)GlcNAc(b1-3)Gal(b1-4)GlcNAc(b1-3)Gal(b1-4)GlcNAc(b1-3)Gal(b1-4)GlcNAc(b1-2)Man(a1-3)]Man(b1-4)GlcNAc(b1-4)[Fuc(a1-6)]GlcNAc
# In short: as §1
# [17] = biological target: Gal(b1-4)GlcNAc(b1-3)Gal(b1-4)GlcNAc(b1-3)Gal(b1-4)GlcNAc(b1-3)Gal(b1-4)GlcNAc(b1-3)Gal(b1-4)GlcNAc(b1-3)Gal(b1-4)GlcNAc(b1-2)Man(a1-3)[Gal(b1-4)GlcNAc(b1-3)Gal(b1-4)GlcNAc(b1-3)Gal(b1-4)GlcNAc(b1-3)Gal(b1-4)GlcNAc(b1-3)Gal(b1-4)GlcNAc(b1-3)Gal(b1-4)GlcNAc(b1-2)Man(a1-6)]Man(b1-4)GlcNAc(b1-4)GlcNAc
# In short: as §1
# [18] = biological target: Gal(b1-4)GlcNAc(b1-3)Gal(b1-4)GlcNAc(b1-3)GalNAc
# In short: as §1
# [19] = biological target: Gal(b1-4)GlcNAc(b1-3)Gal(b1-4)GlcNAc(b1-3)[Gal(b1-4)GlcNAc(b1-3)Gal(b1-4)GlcNAc(b1-6)]GalNAc
# In short: as §1
binder,measurement,setting,value
B1,glycan array binding signal (z-score),[1],-0.147
same,glycan array binding signal (z-score),[2],0.624
same,glycan array binding signal (z-score),[3],3.34
same,glycan array binding signal (z-score),[4],0.377
same,glycan array binding signal (z-score),[5],-1.41
same,glycan array binding signal (z-score),[6],1.61
same,glycan array binding signal (z-score),[7],0.054
same,glycan array binding signal (z-score),[8],-0.935
same,glycan array binding signal (z-score),[9],1.74
same,glycan array binding signal (z-score),[10],2.44
same,glycan array binding signal (z-score),[11],-0.738
same,glycan array binding signal (z-score),[12],0.558
same,glycan array binding signal (z-score),[13],0.774
same,glycan array binding signal (z-score),[14],0.358
same,glycan array binding signal (z-score),[15],0.943
same,glycan array binding signal (z-score),[16],-0.071
same,glycan array binding signal (z-score),[17],2.19
same,glycan array binding signal (z-score),[18],1.72
same,glycan array binding signal (z-score),[19],0.593

# 5 entries from above in another layout.
binder	measurement	setting	value
B1	glycan array binding signal (z-score)	[1]	-0.147
same	glycan array binding signal (z-score)	[2]	0.624
same	glycan array binding signal (z-score)	[3]	3.34
same	glycan array binding signal (z-score)	[4]	0.377
same	glycan array binding signal (z-score)	[5]	-1.41
